According to paper PMC12511632:
Results are given in words; binding and its absence hold for the method and conditions named. In cells and extracts the contact can be indirect. Some binding calls cover weakened binding; strength is not graded here. Tags and fused reporters may be left off the sequences shown.

Chains of the proteins cited; added tags and fusions are not shown.
UniProt O95166: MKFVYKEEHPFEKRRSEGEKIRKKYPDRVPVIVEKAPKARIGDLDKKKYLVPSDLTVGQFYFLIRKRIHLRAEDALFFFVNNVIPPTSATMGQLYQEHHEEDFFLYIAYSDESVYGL

Key:
[1] = biological target: T1, C-terminally FLAG-tagged G2E3 (G2/M-phase-specific E3 ubiquitin ligase) (UniProt Q7L622); test: co-IP; AsPC-1 cells transfected with G2E3-FLAG or empty FLAG plasmid, 48 h; lysed in RIPA buffer; Pierce Co-IP kit; endogenous partners detected by immunoblot
T1 sequence: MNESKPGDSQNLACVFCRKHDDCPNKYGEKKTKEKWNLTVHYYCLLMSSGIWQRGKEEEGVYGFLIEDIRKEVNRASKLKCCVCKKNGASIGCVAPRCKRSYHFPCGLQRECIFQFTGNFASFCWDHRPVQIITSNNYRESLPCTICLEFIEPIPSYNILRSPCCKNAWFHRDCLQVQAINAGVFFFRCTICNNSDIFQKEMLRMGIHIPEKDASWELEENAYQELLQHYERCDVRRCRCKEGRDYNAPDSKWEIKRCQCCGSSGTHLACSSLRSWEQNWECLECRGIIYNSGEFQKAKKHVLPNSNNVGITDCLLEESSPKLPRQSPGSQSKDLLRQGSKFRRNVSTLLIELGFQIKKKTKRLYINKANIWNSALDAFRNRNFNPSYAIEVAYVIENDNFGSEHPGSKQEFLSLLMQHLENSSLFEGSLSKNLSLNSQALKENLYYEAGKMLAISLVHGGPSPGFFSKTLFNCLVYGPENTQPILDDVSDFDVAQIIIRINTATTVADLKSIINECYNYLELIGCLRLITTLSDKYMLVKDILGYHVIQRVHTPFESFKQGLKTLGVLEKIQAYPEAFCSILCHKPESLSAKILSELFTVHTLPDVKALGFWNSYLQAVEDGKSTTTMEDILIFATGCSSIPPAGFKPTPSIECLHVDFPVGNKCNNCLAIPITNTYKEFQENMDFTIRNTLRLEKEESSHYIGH

[2] = biological target: T1, C-terminally FLAG-tagged G2E3 (G2/M-phase-specific E3 ubiquitin ligase); test: co-IP; HEK293TN cells (text: HEK293T) transfected with G2E3-FLAG or empty FLAG plasmid, 48 h; lysed in RIPA buffer; Pierce Co-IP kit; endogenous partners detected by immunoblot

In the case of GABARAP (from UniProt O95166 1-117), the binding [1] is reported as “binds” and the binding [2] is reported as “binds”.
